PubChem BioAssay AID1347075 (National Center for Advancing Translational Sciences (NCATS), 2019)
Among all 400,000 compounds or so, about 5,500 (1.4%) were called active. This list was built around the results that the source calls inconclusive (neither active nor inactive); the mix of calls is not that of the screen. Calls follow the shape of the dose curve; as a rule, active = well fitted cell-killing curve with a large enough effect; inconclusive = small, poorly fitted or top-dose-only effect, or effect the other way; inactive = flat fitted curve, though single readings scatter. Where the call is inconclusive, the potency comes from a doubtful curve fit.

Experiment: qHTS assay for MDR1-selective chemotherapeutics: Primary screen using the parental adenocarcinoma cell KB-3-1; also: nearly all actives have a fitted effect of over 60% in size
Settings: KB-3-1 viability, CellTiter-Glo ATP luminescence, 72 h; activity change, negative = cytotoxic: at 46.1 µM (top of the series)
Summary of the method: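 KB-3-1 cells, DMEM (no phenol red) + 10% FBS; compound by pin transfer, 72 h, 37 °C. Readout: CellTiter-Glo luminescence after 10 min. Data normalized, curve-fitted.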
% is scaled to controls: 0 for no effect and ±100 for the full control effect; potency is read from the fitted curve at half-maximal effect.

Row | Compound | Potency | activity change, negative = cytotoxic
1 | COc1cc(S(=O)(=O)Nc2ccc(C)cc2)ccc1N=Cc1c(C)[nH]n(-c2ccc(C)cc2)c1=O | inconclusive: 5.8 µM [cytotoxic, partial curve, poor fit] | 
2 | CC12CN(Cc3ccccc3)CC(C)(CN(Cc3ccccc3)C1)C2=NO | inconclusive: 29.1 µM [cytotoxic, single point] | 
3 | CC1CCc2cc(F)cc3c(O)c(C(=O)NCCN(C)C)c(=O)n1c23 (stereo unspecified) |  | inactive: 0%
4 | C=CCN=C1SC(C)C(=O)N1S(=O)(=O)c1ccccc1 (stereo unspecified) | inconclusive: 0.251 µM [rising, full curve, poor fit] | 
5 | CCCCOP(=O)(OCCCC)C1(NS(=O)(=O)c2ccccc2)C=CC(=O)c2ccccc21 (stereo unspecified) | inconclusive: 29.1 µM [cytotoxic, single point] | 
6 | Cc1ccc(Cl)cc1NC(=O)C1CCN(C(=O)c2cnn(-c3ccccc3)c2-n2cccc2)CC1 | inconclusive: 29.1 µM [cytotoxic, partial curve, poor fit] | 
7 | C(=C\c1ccccc1)/CN1CCN(C(c2nnnn2C2CCCC2)C2CC2)CC1 (stereo unspecified) |  | inactive: -0.0577%
8 | CC(C(=O)NC(=O)NC1CCCCC1)N1CCN(C(c2ccccc2)c2ccccc2)CC1 (stereo unspecified) | inconclusive: 29.1 µM [cytotoxic, single point] | 
9 | COC(=O)[C@]12CCCCC=C1N(Cc1ccc(Cl)cc1Cl)C(=O)[C@H](CC(=O)NCc1cccc3ccccc13)C2 | inconclusive: 18.4 µM [cytotoxic, single point] | 
10 | COc1ccccc1N1CCN(C(=O)c2ccc3nc(-c4ccco4)c(-c4ccco4)nc3c2)CC1 | inconclusive: 20.6 µM [cytotoxic, single point] | 
11 | O=C(Nc1cc(=O)[nH]c(=O)[nH]1)c1cc(Cl)ccc1Cl | active: 4.11 µM | 
12 | Cc1ccccc1-c1nnc(SCC(=O)N(C)c2c(N)n(Cc3ccccc3)c(=O)[nH]c2=O)n1C | inconclusive: 20.6 µM [rising, single point] | 
13 | CC1(C(=O)O)CCC(C(=O)Nc2ccc(S(N)(=O)=O)cc2)C1(C)C (stereo unspecified) |  | inactive: 2.07%
14 | Cc1ccc2[nH]c(C)c(CCNC(=O)c3c(N)no[n+]3[O-])c2c1 | inconclusive: 29.1 µM [cytotoxic, single point] | 
15 | COc1ccccc1N(Cc1ccccc1)S(=O)(=O)c1cccc(C(=O)Nc2cc(C)ccn2)c1 | active: 16.4 µM | 
16 | C#CCOCCOCCOCCNc1nc(N2CCN(C(=O)CCCCCCCCCCNC(=O)[C@H]([C@@H](C)CC)n3cc(CCCCCN)nn3)CC2)nc(N2CCN(C(=O)CCCCCCCCCCNC(=O)[C@H](CO)n3cc(CCCCCN)nn3)CC2)n1 | inconclusive: 29.1 µM [cytotoxic, single point] | 
17 | Cn1ccnc1COc1ccc(/C=N/O)cc1 |  | inactive: 0.0615%
18 | O=C(CCCCC(=O)NN=Cc1ccccc1O)NN=Cc1ccccc1O | inconclusive: 32.6 µM [cytotoxic, single point] | 
19 | COc1ccc(SCCN2CCN(C)CCC2=O)cc1 |  | inconclusive: 35.3%
20 | O=C(Nc1nnc(-c2ccc3c(c2)CCCC3)o1)c1ccccc1 | inconclusive: 20.6 µM [cytotoxic, single point] | 
21 | CC1CCN(S(=O)(=O)c2ccc(C(=O)Nc3ccccc3-c3nc4ccccc4[nH]3)cc2)CC1 | inconclusive: 20.6 µM [cytotoxic, single point] | 
22 | Cc1oc(-c2ccccc2)cc1C(=O)Nc1cccc2ccccc12 | inconclusive: 18.4 µM [cytotoxic, single point] | 

Row | Compound | Potency | activity change, negative = cytotoxic
23 | O=C(COc1ccc(F)cc1)Nc1ccc(C(=O)OCc2cc(=O)n3nc(C4CC4)sc3n2)cc1 |  | inactive: -10%
24 | CCOc1ccccc1N(C)C(=O)c1cc2c(=O)n(CC)c3ccccc3c2s1 | inconclusive: 16.4 µM [cytotoxic, partial curve, poor fit] | 
25 | COc1ccccc1CNC(=O)CSCc1nc(-c2ccc(OC)c(OC)c2)oc1C |  | inactive: -2.04%
26 | COc1ccc(NC(=O)C(=O)NCC2CCCN2S(=O)(=O)c2cccs2)cc1 (stereo unspecified) | inconclusive: 23.1 µM [cytotoxic, partial curve, poor fit] | 
27 | Cc1ccc(-n2nc(C(=O)Nc3ccc(Br)cc3C)c(=O)n(C)c2=O)cc1 |  | inactive: 5.52%
28 | COC(=O)[C@H]1C[C@H](C(=O)O)[C@@H](C)C1(C)C |  | inactive: 0.325%
29 | Cc1ccc(CNC(=O)NC23CC4CC(CC(C4)C2)C3)cc1 |  | inactive: -1.6%
30 | CCCCn1c(N)c(N(CC)C(=O)c2cccc(OC)c2)c(=O)[nH]c1=O |  | inactive: -5.62%
31 | CC(C)Nc1nc2nonc2nc1Nc1ccccc1 | active: 18.4 µM | 
32 | Cc1cc(OCc2n[nH]c(=S)n2-c2ccccc2)ccc1Cl |  | inactive: 13.2%
33 | CCOC(=O)c1ccccc1NC(=O)NCc1cccn1Cc1ccc(F)cc1 | inconclusive: 18.4 µM [cytotoxic, single point] | 
34 | COc1ccccc1CNC(=O)C1CCN(S(=O)(=O)c2ccc3[nH]c(=O)ccc3c2)CC1 |  | inactive: 16.5%
35 | Cc1ccc(NC(=O)CNc2cc(S(=O)(=O)N3CCOCC3)ccc2NCC2CCCO2)cc1F (stereo unspecified) | inconclusive: 29.1 µM [rising, partial curve, poor fit] | 
36 | CCc1nn2c(N)c(/C=C3\C=Nc4ccccc43)c(=O)nc2s1 | inconclusive: 11.6 µM [rising, partial curve, poor fit] | 
37 | CCOc1ccc(N2CC(C(=O)NCc3ccc4c(c3)OCO4)CC2=O)cc1 (stereo unspecified) |  | inactive: 4.58%
38 | O=C1CC(c2cccc(Cl)c2Cl)c2cc3c(cc2N1)OCCO3 (stereo unspecified) | inconclusive: 29.1 µM [cytotoxic, single point] | 
39 | COc1ccc(CNC(=O)C2Cc3c(-c4cccc(C(C)=O)c4)ccnc3O2)cc1OC (stereo unspecified) | inconclusive: 29.1 µM [cytotoxic, single point] | 
40 | CCCN(CCC)CCCNC(=O)c1ccc2c(c1)N(CC)C(=O)c1ccccc1S2=O (stereo unspecified) | inconclusive: 29.1 µM [cytotoxic, single point] | 
41 | Cn1c(CSCc2ccc(F)cc2)nnc1SCC(=O)Nc1nccs1 | inconclusive: 18.4 µM [cytotoxic, single point] | 
42 | CCCN(CC(=O)Nc1ccc(Cl)cc1Cl)C(=O)/C=C/c1ccco1 | inconclusive: 29.1 µM [cytotoxic, single point] | 
43 | CC1(C)CC(=O)C2=C(C1)Nc1ccccc1S2 |  | inactive: -2.88%
44 | Cc1ccc2nc(-c3ccc(NC(=S)NC4CC(C)(C)NC(C)(C)C4)cc3)sc2c1 | inconclusive: 20.6 µM [cytotoxic, single point] | 

Row | Compound | Potency | activity change, negative = cytotoxic
45 | COc1ccccc1N1CCc2c(C)nc3c(OC)cccc3c21 | inconclusive: 14.6 µM [cytotoxic, partial curve] | 
46 | CN1CCN(CCCC(=O)c2ccc(C3CCCC3)cc2)CC1 | inconclusive: 8.2 µM [cytotoxic, partial curve, poor fit] | 
47 | COc1ccc(OC)c(NC(=O)CSc2nnc(Cc3cccn3C)n2CCc2ccccc2)c1 |  | inactive: 3.16%
48 | CCOc1ccc(-c2nnc(SCC(=O)Nc3ccc4c(c3)c3ccccc3n4CC)n2N)cc1 |  | inactive: -28.1%
49 | COc1ccc(N2COC3c4cccc5cccc(c45)C32)cc1 (stereo unspecified) |  | inactive: 0%
50 | COC(=O)c1c(C)n(-c2ccc(OC)cc2)c2ccc(O)cc12 | inconclusive: 29.1 µM [cytotoxic, single point] | 
51 | Cc1ccc(NCC(=O)c2ccccc2)cc1Cl | inconclusive: 29.1 µM [rising, single point] | 
52 | COc1ccccc1NC(=O)c1ccc(NC(=O)CSc2nncn2C)cc1 | inconclusive: 23.1 µM [rising, single point] | 
53 | CCN(CC)S(=O)(=O)c1cccc(NC(=O)Nc2cccc(C(F)(F)F)c2)c1 | active: 7.31 µM | 
54 | COc1ccccc1N(CC(=O)Nc1ccc2c(c1)OCCO2)S(=O)(=O)c1ccc(C)cc1 | inconclusive: 29.1 µM [cytotoxic, single point] | 
55 | CCN1C[C@@H]2[C@@H]3C(=O)N(C)C(=O)[C@@H]3[C@](C)(C1=O)N2C(=O)c1ccc(Cl)c(Cl)c1 | inconclusive: 25.9 µM [rising, single point] | 
56 | Nc1cc(N)cc(C(=O)OCC(=O)Nc2cc(S(=O)(=O)N3CCCCC3)ccc2Cl)c1 | inconclusive: 18.4 µM [cytotoxic, partial curve, poor fit] | 
57 | CCc1ccc(NC(=O)COc2ccc(F)cc2C(=O)c2cnn(-c3ccccc3)c2)cc1 | inconclusive: 23.1 µM [cytotoxic, single point] | 
58 | O=C(NCC1CCCO1)c1cc(-c2ccccc2)nc2ccc(Br)cc12 (stereo unspecified) |  | inactive: -9%
59 | COc1ccc(C(=O)CSc2nnc(CN3CCCCC3)n2-c2ccc(Cl)cc2)cc1OC |  | inactive: -6.48%
60 | COc1ccccc1NC(=O)/C(N=Nc1ccc(C)c(S(=O)(=O)Nc2ccccc2Cl)c1)=C(\C)O |  | inactive: -5.37%
61 | O=C(NCCc1ccccc1)C1CCCN1C(=O)Nc1ccc(Cl)cc1 (stereo unspecified) | inconclusive: 20.6 µM [cytotoxic, single point] | 
62 | CCOC(=O)[C@]12CCC=C1N(Cc1ccc(Cl)cc1Cl)C(=O)[C@H](CC(=O)NCC13CC4CC(CC(C4)C1)C3)C2 | inconclusive: 18.4 µM [cytotoxic, single point] | 
63 | O=C(Nc1ccccc1SCC1CSc2nc3ccccc3c(=O)n21)c1ccccc1 (stereo unspecified) | inconclusive: 29.1 µM [cytotoxic, single point] | 
64 | O=C(NCCc1ccccc1)c1ccc(CSc2nc3cccnc3n2Cc2ccccc2)cc1 | inconclusive: 20.6 µM [cytotoxic, single point] | 
65 | CCc1nc(N2CCN(Cc3ccc4c(c3)OCO4)CC2)c2oc3ccccc3c2n1 | active: 20 µM | 
66 | Cc1cccc(CSCCNC(=S)Nc2ccccc2)c1 | inconclusive: 32.6 µM [cytotoxic, single point] | 

Ordered by number of heavy atoms (descending): part of the list above.
Row | Compound | Potency | activity change, negative = cytotoxic
16 | C#CCOCCOCCOCCNc1nc(N2CCN(C(=O)CCCCCCCCCCNC(=O)[C@H]([C@@H](C)CC)n3cc(CCCCCN)nn3)CC2)nc(N2CCN(C(=O)CCCCCCCCCCNC(=O)[C@H](CO)n3cc(CCCCCN)nn3)CC2)n1 | inconclusive: 29.1 µM [cytotoxic, single point] | 
62 | CCOC(=O)[C@]12CCC=C1N(Cc1ccc(Cl)cc1Cl)C(=O)[C@H](CC(=O)NCC13CC4CC(CC(C4)C1)C3)C2 | inconclusive: 18.4 µM [cytotoxic, single point] | 
35 | Cc1ccc(NC(=O)CNc2cc(S(=O)(=O)N3CCOCC3)ccc2NCC2CCCO2)cc1F (stereo unspecified) | inconclusive: 29.1 µM [rising, partial curve, poor fit] | 
21 | CC1CCN(S(=O)(=O)c2ccc(C(=O)Nc3ccccc3-c3nc4ccccc4[nH]3)cc2)CC1 | inconclusive: 20.6 µM [cytotoxic, single point] | 
59 | COc1ccc(C(=O)CSc2nnc(CN3CCCCC3)n2-c2ccc(Cl)cc2)cc1OC |  | inactive: -6.48%
34 | COc1ccccc1CNC(=O)C1CCN(S(=O)(=O)c2ccc3[nH]c(=O)ccc3c2)CC1 |  | inactive: 16.5%
65 | CCc1nc(N2CCN(Cc3ccc4c(c3)OCO4)CC2)c2oc3ccccc3c2n1 | active: 20 µM | 
44 | Cc1ccc2nc(-c3ccc(NC(=S)NC4CC(C)(C)NC(C)(C)C4)cc3)sc2c1 | inconclusive: 20.6 µM [cytotoxic, single point] | 
24 | CCOc1ccccc1N(C)C(=O)c1cc2c(=O)n(CC)c3ccccc3c2s1 | inconclusive: 16.4 µM [cytotoxic, partial curve, poor fit] | 
58 | O=C(NCC1CCCO1)c1cc(-c2ccccc2)nc2ccc(Br)cc12 (stereo unspecified) |  | inactive: -9%
22 | Cc1oc(-c2ccccc2)cc1C(=O)Nc1cccc2ccccc12 | inconclusive: 18.4 µM [cytotoxic, single point] | 
45 | COc1ccccc1N1CCc2c(C)nc3c(OC)cccc3c21 | inconclusive: 14.6 µM [cytotoxic, partial curve] | 
46 | CN1CCN(CCCC(=O)c2ccc(C3CCCC3)cc2)CC1 | inconclusive: 8.2 µM [cytotoxic, partial curve, poor fit] | 
29 | Cc1ccc(CNC(=O)NC23CC4CC(CC(C4)C2)C3)cc1 |  | inactive: -1.6%
31 | CC(C)Nc1nc2nonc2nc1Nc1ccccc1 | active: 18.4 µM | 
28 | COC(=O)[C@H]1C[C@H](C(=O)O)[C@@H](C)C1(C)C |  | inactive: 0.325%
